Values of other authors in patent US8975259B2, “Compositions and methods for inhibiting G protein signaling” (University of Rochester, priority 2007, dated 2015).
pIC50: −log10 of the molar value. Structures were worked out from names or drawings and are uncertain.

Amino acid sequences for entries named in this document (tags omitted). Residues count along the entry.
UniProt P54311, whole entry: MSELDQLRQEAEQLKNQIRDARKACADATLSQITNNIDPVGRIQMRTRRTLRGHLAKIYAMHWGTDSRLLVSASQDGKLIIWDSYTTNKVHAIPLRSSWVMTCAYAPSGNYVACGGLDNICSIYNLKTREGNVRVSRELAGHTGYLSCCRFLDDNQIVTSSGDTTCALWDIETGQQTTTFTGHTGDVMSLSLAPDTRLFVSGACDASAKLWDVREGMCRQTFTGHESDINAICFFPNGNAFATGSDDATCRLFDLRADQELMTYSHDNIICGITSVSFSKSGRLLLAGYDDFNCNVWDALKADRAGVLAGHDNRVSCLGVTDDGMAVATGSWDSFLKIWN
UniProt P63212, 2-68 limits assumed: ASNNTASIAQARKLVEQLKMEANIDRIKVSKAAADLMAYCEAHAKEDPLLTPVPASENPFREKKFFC

Target: Gβ1γ2 (UniProt P54311+P63212)
Conditions: read-out: IC50 ELISA; Table 20, competition ELISA for SIGK binding; data from Bonacci et al. (2006); cited from earlier work

O=C(O)C1CC=CCC1c1c2ccc(=O)cc-2oc2cc(O)ccc12 (stereo not shown)
pIC50: 4.15
